Laboratory results reported in the supplement of paper PMC4604168 (melanoma cell lines).
The list shows a part of the results. Many values rest on one well or one pass, so single values are uncertain.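 Cells were imaged in 1,536-well plates, and nuclei stained with an antibody against cleaved PARP were counted against all DNA-stained nuclei to give the apoptosis fraction. Screening doses were chosen to leave most cells alive, and resting and induced cleaved-PARP levels differ strongly between cell lines.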

Test system: SkMel2
Test: cleaved PARP positive nuclei fraction relative to DMSO control; melanoma cells; higher = more apoptosis
Conditions: library dose: low library concentration; 72 h

Structure (SMILES) | cleaved PARP positive nuclei fraction
CC1(C)CCC(c2ccc(Cl)cc2)=C(CN2CCN(c3ccc(C(=O)NS(=O)(=O)c4ccc(N[C@H](CCN5CCOCC5)CSc5ccccc5)c(S(=O)(=O)C(F)(F)F)c4)cc3)CC2)C1 + CCN(CC)CCCCNc1ncc2cc(-c3cc(OC)cc(OC)c3)c(NC(=O)NC(C)(C)C)nc2n1 [PD173074] (first compound 0.4 µM, partner dose 0.1 µM) | 140%
C[C@]1(O)C[C@@H](c2nc(-c3ccc4ccc(-c5ccccc5)nc4c3)c3c(N)nccn32)C1 + COc1cc2ncnc(Nc3ccc(Oc4ccccc4)cc3)c2cc1OC [SrcI1] (first compound 0.4 µM, partner dose 2 µM) | 76.7%
CC1(C)CCC(c2ccc(Cl)cc2)=C(CN2CCN(c3ccc(C(=O)NS(=O)(=O)c4ccc(N[C@H](CCN5CCOCC5)CSc5ccccc5)c(S(=O)(=O)C(F)(F)F)c4)cc3)CC2)C1 + CCc1ccc(CCOc2ccc(CC3SC(=O)NC3=O)cc2)nc1 [pioglitazone] (first compound 0.4 µM, partner dose 2 µM) | 152%
C[C@@H](N)c1ccc(C(=O)Nc2ccnc3[nH]ccc23)cc1 + CCN(CC)CCCCNc1ncc2cc(-c3cc(OC)cc(OC)c3)c(NC(=O)NC(C)(C)C)nc2n1 [PD173074] (first compound 0.4 µM, partner dose 0.1 µM) | 95.2%
CCN(CC)CCNC(=O)c1c(C)[nH]c(/C=C2\C(=O)Nc3ccc(F)cc32)c1C [sunitinib] + Cc1cc(N2CCOCC2)cc2[nH]c(-c3c(NC[C@@H](O)c4cccc(Cl)c4)cc[nH]c3=O)nc12 [BMS536924] (first compound 0.4 µM, partner dose 0.2 µM) | 151%
NC(=O)c1ccc(N(C(N)=O)c2c(F)cccc2F)nc1-c1ccc(F)cc1F + O=C(Nc1cccc(Cl)c1)Nc1ncc(CCNc2ncnc3ccsc23)s1 [SNS314] (first compound 0.4 µM, partner dose 0.0008 µM) | 134%
Cn1cnc2c(F)c(Nc3ccc(Br)cc3Cl)c(C(=O)NOCCO)cc21 [selumetinib] + Cc1ccc(NC(=O)c2cccc(N(C)C)c2)cc1NC(=O)c1ccc(O)cc1 [ZM336372] (first compound 0.015 µM, partner dose 2 µM) | 184%
CS(=O)(=O)c1ccc(C(=O)Nc2ccc(Cl)c(-c3ccccn3)c2)c(Cl)c1 [vismodegib] + NC(=O)Nc1cc(-c2cccc(F)c2)sc1C(=O)N[C@H]1CCCNC1 [AZD7762] (first compound 1 µM, partner dose 0.02 µM) | 68.4%
Cn1cnc2c(F)c(Nc3ccc(Br)cc3Cl)c(C(=O)NOCCO)cc21 [selumetinib] + Cc1cc(N2CCOCC2)cc2[nH]c(-c3c(NC[C@@H](O)c4cccc(Cl)c4)cc[nH]c3=O)nc12 [BMS536924] (first compound 0.015 µM, partner dose 0.2 µM) | 147%
Cn1cnc2c(F)c(Nc3ccc(Br)cc3Cl)c(C(=O)NOCCO)cc21 [selumetinib] + Oc1nc(-c2ccc(C(F)(F)F)cc2)nc2c1CSCC2 [XAV939] (first compound 0.015 µM, partner dose 2 µM) | 94.2%
COc1ccc(C2=N[C@@H](c3ccc(Cl)cc3)[C@@H](c3ccc(Cl)cc3)N2C(=O)N2CCNC(=O)C2)c(OC(C)C)c1 [Nutlin-3] + Oc1nc(-c2ccc(C(F)(F)F)cc2)nc2c1CSCC2 [XAV939] (first compound 0.1 µM, partner dose 2 µM) | 68%
NC(=O)c1ccc(N(C(N)=O)c2c(F)cccc2F)nc1-c1ccc(F)cc1F + COc1cc2c(Oc3ccc4[nH]c(C)cc4c3F)ncnc2cc1OCCCN1CCCC1 [cediranib] (first compound 0.4 µM, partner dose 0.4 µM) | 112%
Cn1cnc2c(F)c(Nc3ccc(Br)cc3Cl)c(C(=O)NOCCO)cc21 [selumetinib] + CCN(CC)CCCCNc1ncc2cc(-c3cc(OC)cc(OC)c3)c(NC(=O)NC(C)(C)C)nc2n1 [PD173074] (first compound 0.015 µM, partner dose 0.1 µM) | 88.8%
CN(c1ncccc1CNc1nc(Nc2ccc3c(c2)CC(=O)N3)ncc1C(F)(F)F)S(C)(=O)=O + Oc1nc(-c2ccc(C(F)(F)F)cc2)nc2c1CSCC2 [XAV939] (first compound 0.08 µM, partner dose 2 µM) | 115%
Cn1cnc2c(F)c(Nc3ccc(Br)cc3Cl)c(C(=O)NOCCO)cc21 [selumetinib] + COc1ccc(COc2ccc(Cc3cnc(N)nc3N)cc2OC)cc1 [GW2580] (first compound 0.015 µM, partner dose 1 µM) | 171%
NC(=O)c1ccc(N(C(N)=O)c2c(F)cccc2F)nc1-c1ccc(F)cc1F + O=C(O)c1ccc(-c2c[nH]c3ncc(-c4ccccc4)cc23)cc1C1CCCC1 [GSK650394] (first compound 0.4 µM, partner dose 0.16 µM) | 120%
COc1ccc(C2=N[C@@H](c3ccc(Cl)cc3)[C@@H](c3ccc(Cl)cc3)N2C(=O)N2CCNC(=O)C2)c(OC(C)C)c1 [Nutlin-3] + NC(=O)Nc1cc(-c2cccc(F)c2)sc1C(=O)N[C@H]1CCCNC1 [AZD7762] (first compound 0.1 µM, partner dose 0.02 µM) | 111%
CS(=O)(=O)c1ccc(C(=O)Nc2ccc(Cl)c(-c3ccccn3)c2)c(Cl)c1 [vismodegib] + Cc1ccc(NC(=O)c2cccc(N(C)C)c2)cc1NC(=O)c1ccc(O)cc1 [ZM336372] (first compound 1 µM, partner dose 2 µM) | 90.8%
CCCCCCCCc1ccc(CCC(N)(CO)CO)cc1 [fingolimod] + Cn1cc(/C=C2\C(=O)Nc3cccnc32)c2ccccc21 [GW441756] (first compound 2 µM, partner dose 0.4 µM) | 27.3%
NC1(c2ccc(-c3nc4ccn5c(=O)[nH]nc5c4cc3-c3ccccc3)cc2)CCC1 + C=CCn1c(=O)c2cnc(Nc3ccc(N4CCN(C)CC4)cc3)nc2n1-c1cccc(C(C)(C)O)n1 [MK1775] (first compound 0.4 µM, partner dose 0.02 µM) | 66.8%
C[C@]1(O)C[C@@H](c2nc(-c3ccc4ccc(-c5ccccc5)nc4c3)c3c(N)nccn32)C1 + O=C(Nc1cccc(Cl)c1)Nc1ncc(CCNc2ncnc3ccsc23)s1 [SNS314] (first compound 0.4 µM, partner dose 0.0008 µM) | 137%
CC1(C)CCC(c2ccc(Cl)cc2)=C(CN2CCN(c3ccc(C(=O)NS(=O)(=O)c4ccc(N[C@H](CCN5CCOCC5)CSc5ccccc5)c(S(=O)(=O)C(F)(F)F)c4)cc3)CC2)C1 + O=C1NC(=O)/C(=C/c2ccc(-c3ccc(F)cc3O)o2)S1 [AS252424] (first compound 0.4 µM, partner dose 1 µM) | 121%
CC1(C)CCC(c2ccc(Cl)cc2)=C(CN2CCN(c3ccc(C(=O)NS(=O)(=O)c4ccc(N[C@H](CCN5CCOCC5)CSc5ccccc5)c(S(=O)(=O)C(F)(F)F)c4)cc3)CC2)C1 + c1cc(-c2cnn3cc(-c4ccc(OCCN5CCCCC5)cc4)cnc23)ccn1 [Dorsomorphin] (first compound 0.4 µM, partner dose 0.4 µM) | 54.9%
CN(c1ncccc1CNc1nc(Nc2ccc3c(c2)CC(=O)N3)ncc1C(F)(F)F)S(C)(=O)=O + CCN(CC)CCCCNc1ncc2cc(-c3cc(OC)cc(OC)c3)c(NC(=O)NC(C)(C)C)nc2n1 [PD173074] (first compound 0.08 µM, partner dose 0.1 µM) | 71.2%

As a working copy, part of the list above:
Structure (SMILES) | cleaved PARP positive nuclei fraction
COc1ccc(C2=N[C@@H](c3ccc(Cl)cc3)[C@@H](c3ccc(Cl)cc3)N2C(=O)N2CCNC(=O)C2)c(OC(C)C)c1 [Nutlin-3] + NC(=O)Nc1cc(-c2cccc(F)c2)sc1C(=O)N[C@H]1CCCNC1 [AZD7762] (first compound 0.1 µM, partner dose 0.02 µM) | 111%
CS(=O)(=O)c1ccc(C(=O)Nc2ccc(Cl)c(-c3ccccn3)c2)c(Cl)c1 [vismodegib] + Cc1ccc(NC(=O)c2cccc(N(C)C)c2)cc1NC(=O)c1ccc(O)cc1 [ZM336372] (first compound 1 µM, partner dose 2 µM) | 90.8%
CCCCCCCCc1ccc(CCC(N)(CO)CO)cc1 [fingolimod] + Cn1cc(/C=C2\C(=O)Nc3cccnc32)c2ccccc21 [GW441756] (first compound 2 µM, partner dose 0.4 µM) | 27.3%
NC1(c2ccc(-c3nc4ccn5c(=O)[nH]nc5c4cc3-c3ccccc3)cc2)CCC1 + C=CCn1c(=O)c2cnc(Nc3ccc(N4CCN(C)CC4)cc3)nc2n1-c1cccc(C(C)(C)O)n1 [MK1775] (first compound 0.4 µM, partner dose 0.02 µM) | 66.8%
C[C@]1(O)C[C@@H](c2nc(-c3ccc4ccc(-c5ccccc5)nc4c3)c3c(N)nccn32)C1 + O=C(Nc1cccc(Cl)c1)Nc1ncc(CCNc2ncnc3ccsc23)s1 [SNS314] (first compound 0.4 µM, partner dose 0.0008 µM) | 137%
CC1(C)CCC(c2ccc(Cl)cc2)=C(CN2CCN(c3ccc(C(=O)NS(=O)(=O)c4ccc(N[C@H](CCN5CCOCC5)CSc5ccccc5)c(S(=O)(=O)C(F)(F)F)c4)cc3)CC2)C1 + O=C1NC(=O)/C(=C/c2ccc(-c3ccc(F)cc3O)o2)S1 [AS252424] (first compound 0.4 µM, partner dose 1 µM) | 121%
CC1(C)CCC(c2ccc(Cl)cc2)=C(CN2CCN(c3ccc(C(=O)NS(=O)(=O)c4ccc(N[C@H](CCN5CCOCC5)CSc5ccccc5)c(S(=O)(=O)C(F)(F)F)c4)cc3)CC2)C1 + c1cc(-c2cnn3cc(-c4ccc(OCCN5CCCCC5)cc4)cnc23)ccn1 [Dorsomorphin] (first compound 0.4 µM, partner dose 0.4 µM) | 54.9%
